Measurements published in the supplement of paper PMC10849652.
The list shows a part of the results. Residues, ends and D or L forms follow the SMILES beside them. *: point of attachment. Cbz = O=C(OCc1ccccc1)*

Sequences of proteins named here, by UniProt entry; tags and fusion partners are left off. A change or cut given only in a name is not applied to a line headed by its entry.
UniProt O43707, whole entry, looked up: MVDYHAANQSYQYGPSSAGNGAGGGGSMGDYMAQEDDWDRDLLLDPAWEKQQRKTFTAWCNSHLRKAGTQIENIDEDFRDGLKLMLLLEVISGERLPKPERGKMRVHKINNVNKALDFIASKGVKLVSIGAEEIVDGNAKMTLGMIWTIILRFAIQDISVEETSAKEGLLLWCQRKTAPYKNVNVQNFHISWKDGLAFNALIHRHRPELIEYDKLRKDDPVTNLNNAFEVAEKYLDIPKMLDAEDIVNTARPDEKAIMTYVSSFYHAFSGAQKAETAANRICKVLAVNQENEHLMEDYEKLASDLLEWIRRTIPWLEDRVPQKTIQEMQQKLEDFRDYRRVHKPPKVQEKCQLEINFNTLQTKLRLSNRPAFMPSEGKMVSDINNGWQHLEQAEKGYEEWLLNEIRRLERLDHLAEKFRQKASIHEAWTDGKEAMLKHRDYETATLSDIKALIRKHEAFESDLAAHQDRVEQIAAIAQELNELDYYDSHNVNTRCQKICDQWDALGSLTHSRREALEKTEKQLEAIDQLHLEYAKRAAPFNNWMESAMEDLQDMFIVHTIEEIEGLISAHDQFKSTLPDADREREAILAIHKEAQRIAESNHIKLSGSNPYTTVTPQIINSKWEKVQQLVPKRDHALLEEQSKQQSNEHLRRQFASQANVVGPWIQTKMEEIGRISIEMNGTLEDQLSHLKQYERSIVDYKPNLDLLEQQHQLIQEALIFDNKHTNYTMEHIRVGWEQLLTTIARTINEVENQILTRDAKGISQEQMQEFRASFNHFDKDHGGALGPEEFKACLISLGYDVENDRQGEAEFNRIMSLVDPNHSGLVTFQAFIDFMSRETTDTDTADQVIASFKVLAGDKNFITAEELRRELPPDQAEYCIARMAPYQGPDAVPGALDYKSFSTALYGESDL
UniProt Q9UKV3: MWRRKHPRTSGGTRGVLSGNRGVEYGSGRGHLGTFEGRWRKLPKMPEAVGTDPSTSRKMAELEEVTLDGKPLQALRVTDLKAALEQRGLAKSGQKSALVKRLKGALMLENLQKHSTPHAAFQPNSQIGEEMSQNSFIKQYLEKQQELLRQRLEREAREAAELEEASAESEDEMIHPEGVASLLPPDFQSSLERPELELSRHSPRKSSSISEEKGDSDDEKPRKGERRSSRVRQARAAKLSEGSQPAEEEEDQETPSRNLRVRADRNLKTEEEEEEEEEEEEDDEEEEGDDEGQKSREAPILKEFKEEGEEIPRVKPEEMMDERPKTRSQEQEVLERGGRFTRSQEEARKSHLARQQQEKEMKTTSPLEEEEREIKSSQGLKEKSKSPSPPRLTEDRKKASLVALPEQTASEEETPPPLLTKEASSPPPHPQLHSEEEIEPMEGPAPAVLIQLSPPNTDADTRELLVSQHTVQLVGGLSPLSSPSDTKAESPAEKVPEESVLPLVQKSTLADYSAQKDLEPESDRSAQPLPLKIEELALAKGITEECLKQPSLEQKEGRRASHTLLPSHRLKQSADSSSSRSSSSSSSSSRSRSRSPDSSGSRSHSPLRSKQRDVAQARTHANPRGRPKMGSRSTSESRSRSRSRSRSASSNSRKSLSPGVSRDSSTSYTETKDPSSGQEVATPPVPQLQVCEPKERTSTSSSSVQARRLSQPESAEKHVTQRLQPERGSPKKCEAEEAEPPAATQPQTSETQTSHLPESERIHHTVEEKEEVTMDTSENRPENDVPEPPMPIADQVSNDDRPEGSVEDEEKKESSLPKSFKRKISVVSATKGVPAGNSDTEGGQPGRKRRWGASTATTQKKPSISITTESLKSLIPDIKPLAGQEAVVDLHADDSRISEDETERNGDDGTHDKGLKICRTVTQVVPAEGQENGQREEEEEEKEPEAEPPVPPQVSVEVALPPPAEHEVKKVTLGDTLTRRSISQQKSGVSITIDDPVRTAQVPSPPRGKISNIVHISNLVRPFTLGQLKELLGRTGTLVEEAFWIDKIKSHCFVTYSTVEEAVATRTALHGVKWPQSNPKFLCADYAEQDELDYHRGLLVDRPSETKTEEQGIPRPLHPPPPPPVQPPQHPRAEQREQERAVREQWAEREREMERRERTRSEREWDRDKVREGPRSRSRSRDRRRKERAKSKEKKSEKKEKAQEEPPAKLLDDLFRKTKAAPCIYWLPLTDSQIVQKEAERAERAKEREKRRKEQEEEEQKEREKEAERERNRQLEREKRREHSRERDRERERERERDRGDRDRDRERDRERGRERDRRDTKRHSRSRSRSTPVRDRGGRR
UniProt P01023, whole entry, looked up: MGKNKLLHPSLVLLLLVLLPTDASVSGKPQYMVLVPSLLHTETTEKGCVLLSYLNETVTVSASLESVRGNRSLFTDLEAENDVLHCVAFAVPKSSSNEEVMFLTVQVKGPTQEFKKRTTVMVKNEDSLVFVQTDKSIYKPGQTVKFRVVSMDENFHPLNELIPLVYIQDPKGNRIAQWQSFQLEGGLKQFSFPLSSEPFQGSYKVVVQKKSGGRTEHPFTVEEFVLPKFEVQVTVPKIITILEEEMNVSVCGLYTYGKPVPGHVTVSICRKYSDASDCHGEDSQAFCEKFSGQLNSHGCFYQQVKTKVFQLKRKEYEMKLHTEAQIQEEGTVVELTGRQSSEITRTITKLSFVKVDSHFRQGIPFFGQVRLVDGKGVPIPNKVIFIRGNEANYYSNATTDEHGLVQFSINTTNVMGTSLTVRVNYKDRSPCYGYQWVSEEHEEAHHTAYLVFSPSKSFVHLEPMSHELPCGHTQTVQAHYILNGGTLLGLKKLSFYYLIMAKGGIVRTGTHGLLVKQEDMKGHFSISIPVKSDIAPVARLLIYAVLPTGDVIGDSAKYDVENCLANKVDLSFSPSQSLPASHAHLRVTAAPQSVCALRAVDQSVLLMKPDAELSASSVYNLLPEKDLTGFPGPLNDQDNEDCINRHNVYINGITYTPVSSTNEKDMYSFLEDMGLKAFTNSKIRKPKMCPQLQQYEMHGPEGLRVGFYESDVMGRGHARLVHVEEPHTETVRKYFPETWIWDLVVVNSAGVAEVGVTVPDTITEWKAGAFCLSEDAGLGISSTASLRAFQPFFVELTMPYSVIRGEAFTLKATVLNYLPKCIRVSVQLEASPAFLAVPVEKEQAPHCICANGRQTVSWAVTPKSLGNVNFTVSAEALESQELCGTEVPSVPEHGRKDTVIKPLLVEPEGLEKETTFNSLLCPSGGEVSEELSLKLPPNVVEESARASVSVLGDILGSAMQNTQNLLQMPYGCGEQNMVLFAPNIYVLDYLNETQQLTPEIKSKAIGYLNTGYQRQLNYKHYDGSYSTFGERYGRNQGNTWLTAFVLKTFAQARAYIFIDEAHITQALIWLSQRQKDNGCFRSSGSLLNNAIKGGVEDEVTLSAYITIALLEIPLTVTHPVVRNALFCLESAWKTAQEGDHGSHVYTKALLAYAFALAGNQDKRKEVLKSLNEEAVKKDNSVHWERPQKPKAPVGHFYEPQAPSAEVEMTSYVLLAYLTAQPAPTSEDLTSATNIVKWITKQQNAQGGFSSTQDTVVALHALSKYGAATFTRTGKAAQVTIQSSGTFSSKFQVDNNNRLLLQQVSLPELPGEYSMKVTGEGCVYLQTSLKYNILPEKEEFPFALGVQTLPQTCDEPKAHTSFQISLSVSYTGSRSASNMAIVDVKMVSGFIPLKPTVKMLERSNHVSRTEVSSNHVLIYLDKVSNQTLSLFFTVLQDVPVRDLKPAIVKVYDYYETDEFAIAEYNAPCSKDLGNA
UniProt Q9H845: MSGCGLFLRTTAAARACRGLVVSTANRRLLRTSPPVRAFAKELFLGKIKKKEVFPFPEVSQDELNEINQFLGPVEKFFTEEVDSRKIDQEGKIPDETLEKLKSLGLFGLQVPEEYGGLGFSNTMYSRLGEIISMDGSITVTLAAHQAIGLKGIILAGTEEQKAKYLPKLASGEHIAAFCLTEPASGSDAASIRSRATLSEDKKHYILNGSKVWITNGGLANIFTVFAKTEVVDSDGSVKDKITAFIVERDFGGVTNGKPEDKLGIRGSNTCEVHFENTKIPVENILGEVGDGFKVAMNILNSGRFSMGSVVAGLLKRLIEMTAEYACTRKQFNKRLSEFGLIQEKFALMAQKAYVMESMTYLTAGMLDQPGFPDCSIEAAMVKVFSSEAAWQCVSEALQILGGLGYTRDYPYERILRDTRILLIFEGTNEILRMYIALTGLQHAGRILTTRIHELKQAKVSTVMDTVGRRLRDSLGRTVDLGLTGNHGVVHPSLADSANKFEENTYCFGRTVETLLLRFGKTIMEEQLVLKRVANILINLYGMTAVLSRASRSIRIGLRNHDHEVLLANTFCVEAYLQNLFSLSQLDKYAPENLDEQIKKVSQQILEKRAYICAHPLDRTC
UniProt Q9H3P7: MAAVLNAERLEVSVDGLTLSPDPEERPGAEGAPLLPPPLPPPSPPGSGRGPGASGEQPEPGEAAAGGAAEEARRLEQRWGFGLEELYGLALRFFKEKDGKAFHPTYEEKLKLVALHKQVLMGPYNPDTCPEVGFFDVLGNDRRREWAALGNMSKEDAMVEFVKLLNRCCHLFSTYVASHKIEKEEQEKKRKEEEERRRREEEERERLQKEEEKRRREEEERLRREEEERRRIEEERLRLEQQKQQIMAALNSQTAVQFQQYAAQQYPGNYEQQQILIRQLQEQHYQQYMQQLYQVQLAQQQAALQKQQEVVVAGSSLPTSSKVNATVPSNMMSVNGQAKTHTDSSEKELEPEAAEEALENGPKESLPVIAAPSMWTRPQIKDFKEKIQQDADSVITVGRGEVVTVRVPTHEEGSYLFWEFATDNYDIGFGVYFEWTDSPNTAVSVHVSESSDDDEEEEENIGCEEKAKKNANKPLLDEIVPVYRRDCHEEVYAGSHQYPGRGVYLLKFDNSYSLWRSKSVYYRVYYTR
UniProt Q15057: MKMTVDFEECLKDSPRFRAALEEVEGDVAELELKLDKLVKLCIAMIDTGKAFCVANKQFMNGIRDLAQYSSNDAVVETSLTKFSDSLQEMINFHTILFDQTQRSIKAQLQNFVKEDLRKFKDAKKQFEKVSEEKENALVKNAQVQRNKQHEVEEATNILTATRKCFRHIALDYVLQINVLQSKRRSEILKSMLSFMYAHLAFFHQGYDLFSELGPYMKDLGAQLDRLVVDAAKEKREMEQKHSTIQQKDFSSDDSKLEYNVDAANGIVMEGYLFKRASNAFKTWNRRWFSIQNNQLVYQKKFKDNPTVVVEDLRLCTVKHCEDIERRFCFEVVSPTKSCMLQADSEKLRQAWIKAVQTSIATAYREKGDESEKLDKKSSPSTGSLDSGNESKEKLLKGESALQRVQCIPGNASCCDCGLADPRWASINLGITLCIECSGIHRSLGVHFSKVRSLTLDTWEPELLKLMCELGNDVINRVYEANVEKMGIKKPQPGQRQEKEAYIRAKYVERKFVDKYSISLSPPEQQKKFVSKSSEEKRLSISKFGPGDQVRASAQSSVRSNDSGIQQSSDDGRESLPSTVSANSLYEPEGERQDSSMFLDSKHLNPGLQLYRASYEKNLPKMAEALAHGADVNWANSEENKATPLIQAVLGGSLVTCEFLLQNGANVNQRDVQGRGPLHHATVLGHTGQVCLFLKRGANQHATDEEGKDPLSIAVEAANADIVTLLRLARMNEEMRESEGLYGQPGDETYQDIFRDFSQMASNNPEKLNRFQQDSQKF
UniProt Q6UWZ7: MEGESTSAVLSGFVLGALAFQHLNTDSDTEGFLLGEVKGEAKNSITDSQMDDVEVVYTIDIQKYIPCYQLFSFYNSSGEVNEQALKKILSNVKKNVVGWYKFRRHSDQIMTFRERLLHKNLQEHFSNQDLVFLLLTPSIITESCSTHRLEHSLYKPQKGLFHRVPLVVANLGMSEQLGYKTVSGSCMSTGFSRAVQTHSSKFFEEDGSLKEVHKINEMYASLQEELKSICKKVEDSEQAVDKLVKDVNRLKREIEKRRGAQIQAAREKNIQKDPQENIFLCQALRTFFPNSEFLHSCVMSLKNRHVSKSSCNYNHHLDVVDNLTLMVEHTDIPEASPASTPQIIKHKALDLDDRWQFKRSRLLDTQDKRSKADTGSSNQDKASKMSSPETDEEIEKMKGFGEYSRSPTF

Experiments:
Experiment in all cases: log2 fold change, soluble protein after heating vs DMSO (PISA); higher = thermal stabilisation; K562 cells, 10 uM, 30 min; active = over 0.2 and 3.5 SD of the protein, either way, in both replicates (recomputed)
erlotinib = compound: C#Cc1cccc(Nc2ncnc3cc(OCCOC)c(OCCOC)cc23)c1 [erlotinib]
Method in brief: (§1)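 K562 cells (2×10^6 cells/mL) were treated with 10 μM compound for 30 min, and aliquots were heated for 3 min over 48°C-58°C. Pooled aliquots were extracted in PBS with 0.5% NP-40 at 4°C, and the supernatant after 21,000xg for 90 min was measured by TMTpro 16plex LC-MS/MS with channel sums equalised. Reported thermal stability, relative to control samples and from duplicates, is a log2 fold change.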

[1] = compound: C/C(=N\NC(=O)C1=CC(=CC=C1)S(=O)(=O)N2CCOCC2)/C3=C(C=CC(=C3)Cl)O
Method in brief: as §1

[2] = compound: C1=CC(=C(C=C1Cl)C2=NC3=NC=CN=C3C(=N2)NC4=CC=NC=C4)F
Method in brief: as §1

[3] = compound: C1=CC(=CC=C1C2=NC3=C(N2)C=C(C=C3)C(=O)N)OC4=CC=C(C=C4)Cl
Method in brief: as §1

[4] = compound: C1=CC2=C(C=CC(=C2)/C=C\3/C(=O)NC(=NCC4=CC=CS4)S3)N=C1
Method in brief: as §1

[5] = compound: C1=CC2=NC=CN=C2C=C1/C=C/3\C(=O)NC(=O)S3
Method in brief: as §1

[6] = compound: C1=CC=C(C=C1)C2=NC(=C(N2)C3=CC=NC=C3)C4=CC(=C(C=C4)Cl)O
Method in brief: as §1

[7] = compound: C1=CC=C2C(=C1)C3=NNC4=CC=CC(=C43)C2=O
Method in brief: as §1

[8] = compound: C1CCN(C1)C(=O)NC2=CC=CC(=C2)NC3=NC=C(C(=N3)NCCC4=CN=CN4)Br
Method in brief: as §1

[9] = compound: C1CN(CCC1(CC2=CC=C(C=C2)Cl)N)C3=NC=NC4=C3C=CN4
Method in brief: as §1

IRAK-1-4 Inhibitor I = compound: C1COCCN1CCN2C3=CC=CC=C3N=C2NC(=O)C4=CC(=CC=C4)[N+](=O)[O-] [IRAK-1-4 Inhibitor I]
Method in brief: as §1

ibrutinib = compound: C=CC(=O)N1CCC[C@@H](n2nc(-c3ccc(Oc4ccccc4)cc3)c3c(N)ncnc32)C1 [ibrutinib]
Method in brief: as §1

[10] = compound: CC(=O)c1cnc2ccc(-c3cc(Cl)c(O)c(Cl)c3)nc2c1N[C@H]1CC[C@H](CN(C)C)CC1
Method in brief: as §1

ralimetinib = compound: CC(C)(C)Cn1c(N)nc2ccc(-c3[nH]c(C(C)(C)C)nc3-c3ccc(F)cc3)nc21 [ralimetinib]
Method in brief: as §1

[11] = compound: CC(C)(O)CC(=O)NCCn1ccc2ncnc(Nc3ccc(Oc4cccc(C(F)(F)F)c4)c(Cl)c3)c21
Method in brief: as §1

[12] = compound: CC(C)C1=C2N=C(C=C(N2N=C1)NCC3=CC=CC=C3)NCCCCCCN
Method in brief: as §1

[13] = compound: CC(C)C[C@@H](C=O)NC(=O)[C@H](CC(C)C)NC(=O)[C@H](CC(C)C)NC(=O)OCc1ccccc1
Method in brief: as §1

pinometostat = compound: CC(C)N(C[C@H]1O[C@@H](n2cnc3c(N)ncnc32)[C@H](O)[C@@H]1O)[C@H]1C[C@@H](CCc2nc3cc(C(C)(C)C)ccc3[nH]2)C1 [pinometostat]
Method in brief: as §1

[14] = compound: CC1=C(C(CC(=O)N1)C2=CC=C(C=C2)C(F)(F)F)C(=O)NC3=C(C=C4C(=C3)C=NN4)F
Method in brief: as §1

[15] = compound: CC1=C(C2=C(C=C1)C(=O)C3=CC=CC=C3N2CCCN)C
Method in brief: as §1

| Target | log2 fold change (erlotinib) | log2 fold change [1] | log2 fold change [2] | log2 fold change [3] | log2 fold change [4] | log2 fold change [5] | log2 fold change [6] | log2 fold change [7] | log2 fold change [8] | log2 fold change [9] | log2 fold change (IRAK-1-4 Inhibitor I) | log2 fold change (ibrutinib) | log2 fold change [10] | log2 fold change (ralimetinib) | log2 fold change [11] | log2 fold change [12] | log2 fold change [13] | log2 fold change (pinometostat) | log2 fold change [14] | log2 fold change [15] |
| --- | --- | --- | --- | --- | --- | --- | --- | --- | --- | --- | --- | --- | --- | --- | --- | --- | --- | --- | --- | --- |
| ACTN4 (UniProt O43707) | inactive: -0.025 | inactive: -0.018 | inactive: -0.042 | inactive: -0.002 | inactive: 0.009 | inactive: 0.02 | inactive: -0.076 | inactive: 0 | inactive: 0.005 | inactive: 0.017 | inactive: 0.042 | inactive: 0.048 | inactive: 0.014 | inactive: -0.091 | inactive: 0.067 | inactive: 0.095 | inactive: -0.022 | inactive: -0.058 | inactive: -0.021 | inactive: 0.004 |
| ACIN1 (UniProt Q9UKV3) | inactive: 0.116 | inactive: -0.1 | inactive: -0.033 | inactive: 0.006 | inactive: 0.051 | inactive: 0.007 | inactive: 0 | inactive: -0.012 | inactive: -0.041 | inactive: -0.038 | inactive: -0.052 | inactive: 0.004 | inactive: -0.155 | inactive: 0.063 | inactive: 0.043 | inactive: -0.022 | inactive: -0.026 | inactive: -0.006 | – | active: -0.369 |
| A2M (UniProt P01023) | inactive: -0.304 | inactive: -0.134 | inactive: 0.065 | inactive: 0.176 | inactive: 0.076 | inactive: -0.074 | inactive: 0.052 | inactive: -0.054 | inactive: 0.179 | inactive: 0.245 | inactive: 0.044 | inactive: 0.215 | inactive: 0.125 | inactive: -0.057 | inactive: 0.202 | inactive: 0.155 | inactive: 0.059 | inactive: -0.078 | inactive: 0.113 | inactive: -0.229 |
| ACAD9 (UniProt Q9H845) | inactive: -0.002 | inactive: 0.025 | inactive: 0.054 | inactive: 0.015 | inactive: 0.035 | inactive: 0.032 | inactive: 0.026 | inactive: -0.002 | inactive: -0.002 | inactive: 0.029 | inactive: 0.01 | inactive: 0.005 | inactive: -0.041 | inactive: -0.034 | inactive: 0.007 | inactive: 0.002 | inactive: -0.036 | inactive: -0.028 | – | inactive: 0.028 |
| ACACA isoform 4 (UniProt Q13085) | inactive: 0.062 | inactive: 0.065 | inactive: -0.138 | inactive: -0.018 | inactive: 0.105 | inactive: -0.053 | inactive: 0.099 | inactive: 0.037 | inactive: -0.079 | inactive: -0.172 | inactive: -0.132 | inactive: -0.061 | inactive: 0.047 | inactive: 0.14 | inactive: -0.01 | inactive: -0.3 | inactive: 0.062 | inactive: 0.281 | inactive: -0.018 | inactive: -0.017 |
| ACBD3 (UniProt Q9H3P7) | inactive: 0.013 | inactive: 0.058 | inactive: 0.046 | inactive: -0.007 | inactive: 0.01 | inactive: -0.026 | inactive: 0.062 | inactive: 0.08 | inactive: -0.051 | inactive: 0.129 | inactive: 0.03 | inactive: 0.005 | inactive: -0.017 | inactive: 0.003 | inactive: 0.028 | inactive: 0.032 | inactive: -0.003 | inactive: -0.02 | inactive: -0.068 | inactive: 0.062 |
| ACAP2 (UniProt Q15057) | inactive: -0.002 | inactive: 0.054 | inactive: 0.062 | inactive: -0.05 | inactive: 0.056 | inactive: 0.037 | inactive: -0.032 | inactive: -0.012 | inactive: -0.042 | inactive: -0.013 | inactive: -0.033 | inactive: -0.012 | inactive: -0.038 | inactive: 0 | inactive: -0.031 | inactive: -0.065 | inactive: 0.061 | inactive: 0.029 | – | inactive: 0.004 |
| ABRAXAS1 (UniProt Q6UWZ7) | inactive: -0.081 | inactive: -0.088 | inactive: -0.015 | inactive: 0.06 | inactive: -0.248 | inactive: -0.063 | inactive: 0.061 | inactive: -0.07 | inactive: -0.007 | inactive: -0.142 | inactive: -0.134 | inactive: -0.028 | inactive: -0.112 | inactive: 0.071 | inactive: -0.011 | inactive: 0.109 | inactive: -0.053 | inactive: 0.173 | – | inactive: 0.066 |

A second format for some results above:
Target,log2 fold change (erlotinib),log2 fold change [1],log2 fold change [2],log2 fold change [3],log2 fold change [4],log2 fold change [5],log2 fold change [6],log2 fold change [7],log2 fold change [8],log2 fold change [9],log2 fold change (IRAK-1-4 Inhibitor I),log2 fold change (ibrutinib),log2 fold change [10],log2 fold change (ralimetinib),log2 fold change [11],log2 fold change [12],log2 fold change [13],log2 fold change (pinometostat),log2 fold change [14],log2 fold change [15]
ACIN1 (UniProt Q9UKV3),inactive: 0.116,inactive: -0.1,inactive: -0.033,inactive: 0.006,inactive: 0.051,inactive: 0.007,inactive: 0,inactive: -0.012,inactive: -0.041,inactive: -0.038,inactive: -0.052,inactive: 0.004,inactive: -0.155,inactive: 0.063,inactive: 0.043,inactive: -0.022,inactive: -0.026,inactive: -0.006,–,active: -0.369
A2M (UniProt P01023),inactive: -0.304,inactive: -0.134,inactive: 0.065,inactive: 0.176,inactive: 0.076,inactive: -0.074,inactive: 0.052,inactive: -0.054,inactive: 0.179,inactive: 0.245,inactive: 0.044,inactive: 0.215,inactive: 0.125,inactive: -0.057,inactive: 0.202,inactive: 0.155,inactive: 0.059,inactive: -0.078,inactive: 0.113,inactive: -0.229
